No signal at the amounts used counts as a negative. For part of these data: Protein sequences can lack the tags named with them. For part of these data: For at least one entry, the source does not settle the construct or the ends of the probe.
Assays:
Assay in all cases: EMSA
[1] = biological target: T1, Bichir VDR (Polypterus senegalus (Senegal bichir)) (UniProt A0A088GJ14); conditions: no RXR, with and without 1,25D3; 100 mM KCl, 10 mM HEPES pH 7.6, 1 mM EDTA, 20 mM MgCl2, 1 mM DTT, 0.1 mg/ml BSA, 4 ug/mL salmon sperm DNA, 1% glycerol, 25 C; 100 ng each protein, 1 pmol probe in 20 uL; recombinant protein; residues 1-421; protein details: pET32a affinity tags incl. polyhistidine; label: 5' Cy5 (unlabeled as competitor)
T1 sequence (looked up): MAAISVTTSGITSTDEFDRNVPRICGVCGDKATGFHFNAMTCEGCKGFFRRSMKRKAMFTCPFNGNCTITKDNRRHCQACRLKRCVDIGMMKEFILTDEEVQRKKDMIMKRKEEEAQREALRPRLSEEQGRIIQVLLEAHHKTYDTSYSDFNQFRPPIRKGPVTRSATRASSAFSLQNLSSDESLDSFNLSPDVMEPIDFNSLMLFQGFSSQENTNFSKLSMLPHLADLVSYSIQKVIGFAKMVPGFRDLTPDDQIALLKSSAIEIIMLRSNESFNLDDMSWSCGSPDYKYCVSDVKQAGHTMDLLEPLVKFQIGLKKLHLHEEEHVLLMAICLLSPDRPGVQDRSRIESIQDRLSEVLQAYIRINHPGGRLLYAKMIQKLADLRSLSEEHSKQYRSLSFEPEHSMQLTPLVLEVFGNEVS

Human VDR (Homo sapiens) = biological target: T2, Human VDR (Homo sapiens) (UniProt P11473); conditions: no RXR, with and without 1,25D3; 100 mM KCl, 10 mM HEPES pH 7.6, 1 mM EDTA, 20 mM MgCl2, 1 mM DTT, 0.1 mg/ml BSA, 4 ug/mL salmon sperm DNA, 1% glycerol, 25 C; 100 ng each protein, 1 pmol probe in 20 uL; recombinant protein; residues 1-427; protein details: pET32a affinity tags incl. polyhistidine; label: 5' Cy5 (unlabeled as competitor)
T2 sequence (looked up): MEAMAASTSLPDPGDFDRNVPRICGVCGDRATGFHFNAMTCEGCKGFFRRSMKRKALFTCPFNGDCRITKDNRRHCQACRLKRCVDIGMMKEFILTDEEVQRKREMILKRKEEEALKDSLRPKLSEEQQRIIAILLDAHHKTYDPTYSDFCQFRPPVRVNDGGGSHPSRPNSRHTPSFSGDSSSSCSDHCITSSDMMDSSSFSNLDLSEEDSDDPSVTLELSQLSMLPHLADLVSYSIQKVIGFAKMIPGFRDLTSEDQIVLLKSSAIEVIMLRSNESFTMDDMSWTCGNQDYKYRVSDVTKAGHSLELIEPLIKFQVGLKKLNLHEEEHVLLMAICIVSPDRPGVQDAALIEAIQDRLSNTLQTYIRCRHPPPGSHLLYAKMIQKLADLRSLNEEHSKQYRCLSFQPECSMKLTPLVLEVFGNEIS

[2] = biological target: T3, Lamprey VDR (Petromyzon marinus (sea lamprey)) (UniProt Q7ZZY9); conditions: no RXR, with and without 1,25D3; 100 mM KCl, 10 mM HEPES pH 7.6, 1 mM EDTA, 20 mM MgCl2, 1 mM DTT, 0.1 mg/ml BSA, 4 ug/mL salmon sperm DNA, 1% glycerol, 25 C; 100 ng each protein, 1 pmol probe in 20 uL; recombinant protein; residues 1-406; protein details: pET32a affinity tags incl. polyhistidine; label: 5' Cy5 (unlabeled as competitor)
T3 sequence (looked up): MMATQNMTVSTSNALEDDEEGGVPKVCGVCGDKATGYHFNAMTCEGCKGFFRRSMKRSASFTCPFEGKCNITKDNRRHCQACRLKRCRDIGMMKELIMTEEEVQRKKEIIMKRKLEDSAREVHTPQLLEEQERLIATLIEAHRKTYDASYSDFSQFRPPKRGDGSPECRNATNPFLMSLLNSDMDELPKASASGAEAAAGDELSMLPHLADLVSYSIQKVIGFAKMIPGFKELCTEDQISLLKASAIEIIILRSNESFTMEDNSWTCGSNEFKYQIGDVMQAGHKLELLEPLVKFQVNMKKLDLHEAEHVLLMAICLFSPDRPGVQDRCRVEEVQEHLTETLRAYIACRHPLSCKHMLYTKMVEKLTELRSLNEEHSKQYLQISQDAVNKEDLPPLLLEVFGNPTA

RXRWT = conditions: RXR alone; 100 mM KCl, 10 mM HEPES pH 7.6, 1 mM EDTA, 20 mM MgCl2, 1 mM DTT, 0.1 mg/ml BSA, 4 ug/mL salmon sperm DNA, 1% glycerol, 25 C; 100 ng each protein, 1 pmol probe in 20 uL; recombinant protein; protein details: polyhistidine; label: 5' Cy5 (unlabeled as competitor)
[3] = biological target: T4, Skate VDR (Leucoraja erinacea (little skate)) (UniProt A0A088GDQ7); conditions: no RXR, with and without 1,25D3; 100 mM KCl, 10 mM HEPES pH 7.6, 1 mM EDTA, 20 mM MgCl2, 1 mM DTT, 0.1 mg/ml BSA, 4 ug/mL salmon sperm DNA, 1% glycerol, 25 C; 100 ng each protein, 1 pmol probe in 20 uL; recombinant protein; residues 1-434; label: 5' Cy5 (unlabeled as competitor)
T4 sequence (looked up): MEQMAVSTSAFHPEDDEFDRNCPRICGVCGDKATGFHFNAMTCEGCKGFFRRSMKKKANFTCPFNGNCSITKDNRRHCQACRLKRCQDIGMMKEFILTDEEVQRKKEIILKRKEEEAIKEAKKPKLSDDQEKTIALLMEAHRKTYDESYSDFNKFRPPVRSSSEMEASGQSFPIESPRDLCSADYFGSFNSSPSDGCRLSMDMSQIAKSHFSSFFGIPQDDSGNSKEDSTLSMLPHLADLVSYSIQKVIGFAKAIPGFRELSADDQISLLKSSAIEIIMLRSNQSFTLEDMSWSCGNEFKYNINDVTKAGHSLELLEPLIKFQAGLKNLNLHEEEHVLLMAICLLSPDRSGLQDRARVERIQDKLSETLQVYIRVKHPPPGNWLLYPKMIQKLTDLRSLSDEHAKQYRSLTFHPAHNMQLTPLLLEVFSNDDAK

Measured: binding result

AGCTTCAGGTCAAGGAGGTCAGAGAGC (double strand) [canonical VDRE (DR3)]
no binding: [1] | Human VDR (Homo sapiens) | [2] | RXRWT | [3]

GCTGAATGAACTTGCTGACCCTCTGCT (double strand) [XREM VDRE (CYP3A4 DR3)]
no binding: [1] | Human VDR (Homo sapiens) | [2] | [3]
